# Data published in PubChem BioAssay (EPA / NIEHS).
# Amino acid sequences for entries named in this document (tags omitted). A change or cut given only in a name is not applied to a line headed by its entry.
# UniProt O08786, whole entry, looked up: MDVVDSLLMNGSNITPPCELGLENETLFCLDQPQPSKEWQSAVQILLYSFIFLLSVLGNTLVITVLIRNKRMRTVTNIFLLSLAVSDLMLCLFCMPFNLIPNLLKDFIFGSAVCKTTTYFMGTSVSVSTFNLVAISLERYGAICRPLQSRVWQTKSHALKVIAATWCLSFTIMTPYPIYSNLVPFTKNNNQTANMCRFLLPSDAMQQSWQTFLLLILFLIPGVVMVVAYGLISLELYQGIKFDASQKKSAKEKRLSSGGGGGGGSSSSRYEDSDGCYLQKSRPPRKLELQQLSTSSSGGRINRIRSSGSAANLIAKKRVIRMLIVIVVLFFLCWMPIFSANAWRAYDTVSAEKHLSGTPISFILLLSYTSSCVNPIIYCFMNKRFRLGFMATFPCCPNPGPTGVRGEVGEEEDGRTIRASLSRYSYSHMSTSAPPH
# UniProt P35372, whole entry, looked up: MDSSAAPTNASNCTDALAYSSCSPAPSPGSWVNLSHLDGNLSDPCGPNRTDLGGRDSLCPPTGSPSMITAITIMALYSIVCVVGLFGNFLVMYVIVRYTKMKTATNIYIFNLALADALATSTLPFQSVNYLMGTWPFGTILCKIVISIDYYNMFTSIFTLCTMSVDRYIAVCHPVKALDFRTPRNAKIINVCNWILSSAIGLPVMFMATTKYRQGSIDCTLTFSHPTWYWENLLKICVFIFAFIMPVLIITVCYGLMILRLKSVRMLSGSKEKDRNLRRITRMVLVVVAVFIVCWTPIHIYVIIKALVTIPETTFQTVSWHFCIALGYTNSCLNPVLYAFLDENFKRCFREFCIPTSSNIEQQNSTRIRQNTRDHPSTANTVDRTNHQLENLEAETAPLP
# UniProt P18090, whole entry, looked up: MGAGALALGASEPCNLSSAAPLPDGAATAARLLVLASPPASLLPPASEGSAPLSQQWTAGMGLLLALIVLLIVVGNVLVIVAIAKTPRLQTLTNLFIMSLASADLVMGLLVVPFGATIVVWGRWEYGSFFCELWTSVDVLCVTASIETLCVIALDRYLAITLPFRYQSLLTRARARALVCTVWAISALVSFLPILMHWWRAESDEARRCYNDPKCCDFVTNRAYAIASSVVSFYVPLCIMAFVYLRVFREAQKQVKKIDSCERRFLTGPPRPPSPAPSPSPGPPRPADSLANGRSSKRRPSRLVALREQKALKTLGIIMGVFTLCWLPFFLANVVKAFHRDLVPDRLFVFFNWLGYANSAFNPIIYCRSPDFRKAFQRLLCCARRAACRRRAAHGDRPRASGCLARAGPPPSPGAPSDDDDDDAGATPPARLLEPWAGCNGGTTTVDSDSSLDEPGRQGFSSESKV
# UniProt O70526, whole entry, looked up: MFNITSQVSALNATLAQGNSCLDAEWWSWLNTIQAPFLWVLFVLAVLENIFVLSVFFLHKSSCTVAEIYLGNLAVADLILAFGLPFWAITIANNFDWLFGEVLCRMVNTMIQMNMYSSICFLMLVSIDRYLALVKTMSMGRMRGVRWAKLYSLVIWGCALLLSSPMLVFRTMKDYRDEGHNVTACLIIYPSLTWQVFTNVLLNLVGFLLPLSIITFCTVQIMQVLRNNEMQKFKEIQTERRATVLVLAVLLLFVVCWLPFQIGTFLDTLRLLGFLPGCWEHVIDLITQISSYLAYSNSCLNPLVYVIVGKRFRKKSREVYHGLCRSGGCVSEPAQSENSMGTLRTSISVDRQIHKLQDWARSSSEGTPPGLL
# UniProt O70528: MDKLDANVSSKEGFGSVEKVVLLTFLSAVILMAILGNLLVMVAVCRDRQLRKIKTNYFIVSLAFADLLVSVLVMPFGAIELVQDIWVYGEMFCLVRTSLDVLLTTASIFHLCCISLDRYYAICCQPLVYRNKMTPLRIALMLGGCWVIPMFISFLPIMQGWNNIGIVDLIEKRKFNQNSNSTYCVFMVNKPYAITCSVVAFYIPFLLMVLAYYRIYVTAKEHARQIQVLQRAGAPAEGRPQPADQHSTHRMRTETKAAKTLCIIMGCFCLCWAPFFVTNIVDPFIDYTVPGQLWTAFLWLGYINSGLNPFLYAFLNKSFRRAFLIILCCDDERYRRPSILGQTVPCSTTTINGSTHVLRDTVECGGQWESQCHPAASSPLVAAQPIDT
# UniProt P22909, whole entry, looked up: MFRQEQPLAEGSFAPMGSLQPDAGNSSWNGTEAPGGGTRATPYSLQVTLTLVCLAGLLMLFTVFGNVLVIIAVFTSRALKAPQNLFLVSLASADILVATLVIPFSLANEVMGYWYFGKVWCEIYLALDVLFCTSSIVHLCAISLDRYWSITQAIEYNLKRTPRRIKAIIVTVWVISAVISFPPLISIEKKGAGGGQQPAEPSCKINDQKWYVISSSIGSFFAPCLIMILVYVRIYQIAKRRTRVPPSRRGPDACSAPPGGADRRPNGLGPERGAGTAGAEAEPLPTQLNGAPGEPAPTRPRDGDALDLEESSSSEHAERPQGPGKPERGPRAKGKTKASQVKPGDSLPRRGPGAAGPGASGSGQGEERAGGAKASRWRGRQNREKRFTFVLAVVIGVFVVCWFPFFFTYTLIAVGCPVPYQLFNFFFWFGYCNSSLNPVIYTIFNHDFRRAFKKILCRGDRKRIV
# UniProt P35353: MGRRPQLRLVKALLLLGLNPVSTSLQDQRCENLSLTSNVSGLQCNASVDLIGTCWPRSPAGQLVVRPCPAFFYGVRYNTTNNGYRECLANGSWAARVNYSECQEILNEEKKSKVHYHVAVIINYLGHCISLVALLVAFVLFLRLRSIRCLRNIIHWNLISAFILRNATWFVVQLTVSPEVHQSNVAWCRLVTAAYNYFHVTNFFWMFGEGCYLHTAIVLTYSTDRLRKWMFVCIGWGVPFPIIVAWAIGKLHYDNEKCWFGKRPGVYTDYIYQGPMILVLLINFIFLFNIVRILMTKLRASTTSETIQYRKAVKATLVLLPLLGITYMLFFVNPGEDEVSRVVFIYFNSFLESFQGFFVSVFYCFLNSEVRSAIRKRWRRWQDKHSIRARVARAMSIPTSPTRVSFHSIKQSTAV
# UniProt Q9Z0U4, whole entry, looked up: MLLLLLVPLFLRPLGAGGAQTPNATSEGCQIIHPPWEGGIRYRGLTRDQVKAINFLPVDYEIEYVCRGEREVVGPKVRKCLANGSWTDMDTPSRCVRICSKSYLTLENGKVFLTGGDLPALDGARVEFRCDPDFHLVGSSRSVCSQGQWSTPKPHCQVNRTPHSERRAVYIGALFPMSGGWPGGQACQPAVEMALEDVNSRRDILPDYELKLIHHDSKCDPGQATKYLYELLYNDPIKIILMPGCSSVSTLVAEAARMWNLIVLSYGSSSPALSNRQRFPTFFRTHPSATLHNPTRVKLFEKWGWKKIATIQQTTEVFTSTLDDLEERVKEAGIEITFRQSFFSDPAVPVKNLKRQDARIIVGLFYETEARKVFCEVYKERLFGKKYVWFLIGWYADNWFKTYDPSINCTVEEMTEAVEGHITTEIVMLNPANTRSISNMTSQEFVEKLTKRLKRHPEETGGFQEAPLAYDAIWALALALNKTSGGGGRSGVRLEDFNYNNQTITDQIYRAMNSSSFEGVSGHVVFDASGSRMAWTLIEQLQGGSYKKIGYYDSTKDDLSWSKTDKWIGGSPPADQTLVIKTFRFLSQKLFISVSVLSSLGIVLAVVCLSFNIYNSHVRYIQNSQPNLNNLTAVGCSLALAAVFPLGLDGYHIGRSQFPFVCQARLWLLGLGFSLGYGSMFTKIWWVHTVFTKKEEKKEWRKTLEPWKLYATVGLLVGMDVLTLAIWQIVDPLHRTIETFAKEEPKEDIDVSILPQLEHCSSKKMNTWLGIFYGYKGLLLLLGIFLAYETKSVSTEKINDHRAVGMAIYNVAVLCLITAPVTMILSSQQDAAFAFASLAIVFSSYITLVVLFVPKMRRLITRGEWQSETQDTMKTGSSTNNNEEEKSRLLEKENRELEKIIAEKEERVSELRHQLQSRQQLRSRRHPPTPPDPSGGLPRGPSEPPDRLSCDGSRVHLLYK
# UniProt P19327, whole entry, looked up: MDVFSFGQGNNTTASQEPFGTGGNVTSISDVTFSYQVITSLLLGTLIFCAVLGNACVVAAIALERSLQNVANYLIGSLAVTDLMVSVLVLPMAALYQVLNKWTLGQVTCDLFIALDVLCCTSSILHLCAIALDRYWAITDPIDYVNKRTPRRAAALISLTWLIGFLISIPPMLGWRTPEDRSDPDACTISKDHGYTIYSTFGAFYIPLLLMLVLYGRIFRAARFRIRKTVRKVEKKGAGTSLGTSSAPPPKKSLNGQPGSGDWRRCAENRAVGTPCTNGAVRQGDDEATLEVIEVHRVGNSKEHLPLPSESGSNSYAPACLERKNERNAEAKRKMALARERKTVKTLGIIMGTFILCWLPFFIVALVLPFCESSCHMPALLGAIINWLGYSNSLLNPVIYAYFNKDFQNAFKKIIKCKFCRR
# UniProt P23385: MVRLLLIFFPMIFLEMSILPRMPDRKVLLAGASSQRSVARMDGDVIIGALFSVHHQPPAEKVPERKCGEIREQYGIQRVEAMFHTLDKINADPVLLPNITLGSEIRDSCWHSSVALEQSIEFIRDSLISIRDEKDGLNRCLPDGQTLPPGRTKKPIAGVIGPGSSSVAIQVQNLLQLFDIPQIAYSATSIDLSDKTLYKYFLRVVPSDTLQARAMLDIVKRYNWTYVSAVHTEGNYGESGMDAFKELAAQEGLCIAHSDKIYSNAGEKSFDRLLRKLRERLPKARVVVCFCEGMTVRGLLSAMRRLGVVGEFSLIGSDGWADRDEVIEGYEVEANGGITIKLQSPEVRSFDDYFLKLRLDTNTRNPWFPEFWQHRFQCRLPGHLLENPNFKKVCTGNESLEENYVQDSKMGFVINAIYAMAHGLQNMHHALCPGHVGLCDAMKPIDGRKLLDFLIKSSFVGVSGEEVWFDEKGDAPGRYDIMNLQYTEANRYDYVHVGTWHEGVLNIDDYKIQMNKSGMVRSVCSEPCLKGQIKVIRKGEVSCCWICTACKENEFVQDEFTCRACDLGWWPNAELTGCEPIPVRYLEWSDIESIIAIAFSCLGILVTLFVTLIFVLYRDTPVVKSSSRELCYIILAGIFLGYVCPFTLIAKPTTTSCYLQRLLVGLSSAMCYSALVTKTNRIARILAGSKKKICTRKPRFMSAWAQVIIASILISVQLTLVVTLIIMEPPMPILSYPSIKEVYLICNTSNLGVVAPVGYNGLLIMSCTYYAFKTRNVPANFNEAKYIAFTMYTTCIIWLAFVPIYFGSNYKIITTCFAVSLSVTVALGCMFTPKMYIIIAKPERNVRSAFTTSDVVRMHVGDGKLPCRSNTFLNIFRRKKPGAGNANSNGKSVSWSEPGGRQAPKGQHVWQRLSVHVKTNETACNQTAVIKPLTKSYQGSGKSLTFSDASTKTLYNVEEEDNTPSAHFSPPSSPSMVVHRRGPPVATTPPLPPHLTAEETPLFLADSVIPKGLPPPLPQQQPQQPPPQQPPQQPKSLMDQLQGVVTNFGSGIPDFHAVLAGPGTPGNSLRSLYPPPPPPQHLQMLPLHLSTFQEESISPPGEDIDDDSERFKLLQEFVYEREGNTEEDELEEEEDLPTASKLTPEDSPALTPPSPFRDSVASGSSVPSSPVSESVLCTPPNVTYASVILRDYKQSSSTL
# Where “and” joins values, the source holds several entries; their conditions need not be identical. Identical values can stand only once. The shares of active, inactive and inconclusive entries below differ from those in the screen. For some of these results: Potencies of inconclusive entries are doubtful fits and often do not repeat. Calls of active or inactive are those of the source. How the source made its calls: active means hit-call score of the fitted dose curve at least 0.9, where 1 is the maximum; inconclusive means response in the unintended direction; inactive means score below 0.9.
# How the values were obtained:
# [1] = tested on: guinea pig Atrionatriuretic Peptide Receptor A (ANPA), gene 100135578; test: NVS_GPCR_gANPA: NovaScreen (NVS) G Protein-Coupled Receptor Assay for guinea pig Atrionatriuretic Peptide Receptor A (ANPA) (AID 2283291)
# Outline: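 Displacement of specific radioligand from guinea pig cerebellum membranes was read by scintillation after 1 h. A duplicate single-point screen at 25 uM was followed by a concentration series up to 50 uM, analysed relative to DMSO.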
# [2] = target: mouse Cholecystokinin, CCK1 Receptor (CCKA), Cckar (gene 12425) (UniProt O08786); test: NVS_GPCR_mCCKAPeripheral: NovaScreen (NVS) G Protein-Coupled Receptor Assay for mouse Cholecystokinin, CCK1 Receptor (CCKA) (AID 2283285)
# Outline: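 Chemicals were first screened in duplicate at 25 uM, with those meeting threshold (e.g., 30% inhibition) retested in singleton concentration series to 50 uM maximum. Binding of radioligand to mouse pancreatic membranes was read after 2 h by filtration and scintillation counting.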
# [3] = target: human Opioid Receptor Mu (Opiate Mu), OPRM1 (gene 4988) (UniProt P35372); test: NVS_GPCR_hOpiate_mu: NovaScreen (NVS) G Protein-Coupled Receptor Assay for human Opioid Receptor Mu (Opiate Mu) (AID 2283290);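 further: hits lower bound tracer signal versus DMSO meaning displacement of the ligand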
# Outline: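 Here, radioligand binding to CHO-extracted receptor was measured after 2.5 h using filter-based scintillation detection. Initial single-concentration screening used 25 uM in duplicate with plate controls; confirmed actives went to concentration-response testing.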
# [4] = target: rat Adrenergic Receptor, Beta (Adrb), Non-selective Binding, Adrb1 (gene 24925) (UniProt P18090); test: NVS_GPCR_rAdrb_NonSelective: NovaScreen (NVS) G Protein-Coupled Receptor Assay for rat Adrenergic Receptor, Beta (Adrb), Non-selective Binding (AID 2283298)
# Outline: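 Rat cortical membranes incubated 1 h with beta-adrenergic radioligand and test chemical; bound ligand measured by filtration and scintillation counting. Screen at 25 uM duplicate, then concentration series with 50 uM maximum; loss of signal versus DMSO.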
# [5] = target: guinea pig Bradykinin Receptor B2 (BK2), BDKRB2 (gene 100135486) (UniProt O70526); test: NVS_GPCR_gBK2: NovaScreen (NVS) G Protein-Coupled Receptor Assay for guinea pig Bradykinin Receptor B2 (BK2) (AID 2283292)
# Outline: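 Guinea pig ileum membrane preparation incubated 1 h with radioligand and test chemical; bound counts measured after filtration. Primary duplicate screening at 25 uM, then singleton concentration series with a 50 uM top dose; DMSO as baseline.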
# [6] = target: guinea pig Serotonin, 5-Hydroxytryptamine Receptor 4 (5HT4), HTR4 (gene 100135548) (UniProt O70528); test: NVS_GPCR_g5HT4: NovaScreen (NVS) G Protein-Coupled Receptor Assay for guinea pig Serotonin, 5-Hydroxytryptamine Receptor 4 (5HT4) (AID 2283294)
# Outline: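 Compounds first screened in duplicate at 25 uM, actives followed up in concentration series. Binding measured as displacement of specific radioligand from guinea pig striatal membranes, 1 h, filter-based scintillation read-out versus DMSO baseline.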
# [7] = target: rat Adrenergic Receptor, Alpha 2 (Adra2), Non-selective Binding, Adra2a (gene 25083) (UniProt P22909); test: NVS_GPCR_rAdra2_NonSelective: NovaScreen (NVS) G Protein-Coupled Receptor Assay for rat Adrenergic Receptor, Alpha 2 (Adra2), Non-selective Binding (AID 2283299)
# Outline: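 Filter-based scintillation counting of radioligand binding to rat cortical membrane receptors, measured 1.25 hours post-dosing; loss of signal versus DMSO indicates displacement. Initial single-concentration duplicate at 25 uM, then concentration series.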
# [8] = tested on: rabbit Platelet Activating Factor Receptor (PAF), gene 100354046; test: NVS_GPCR_rabPAF: NovaScreen (NVS) G Protein-Coupled Receptor Assay for rabbit Platelet Activating Factor Receptor (PAF) (AID 2283287)
# Outline: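 Rabbit platelet membrane preparation; radioligand displacement read by filter-based scintillation counting 1 h after dosing, loss of signal versus DMSO. Primary screen in duplicate at 25 uM, actives followed up in concentration series.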
# [9] = target: rat Corticotropin Releasing Factor Receptor (CRF), Crhr1 (gene 58959) (UniProt P35353); test: NVS_GPCR_rCRF: NovaScreen (NVS) G Protein-Coupled Receptor Assay for rat Corticotropin Releasing Factor Receptor (CRF) (AID 2283300)
# Outline: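 Single-concentration (25 uM, duplicate) radioligand binding on rat cortical membrane preparations, counted by scintillation after 2 h. Activity scored as signal loss relative to DMSO negative control.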
# [10] = target: rat Gamma-Aminobutyric Acid Type B Receptor (GABBR), Gabbr1 (gene 81657) (UniProt Q9Z0U4); test: NVS_GPCR_rGABBR: NovaScreen (NVS) G Protein-Coupled Receptor Assay for rat Gamma-Aminobutyric Acid Type B Receptor (GABBR) (AID 2283301)
# Outline: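 Rat cortical membrane preparation, competitive radioligand binding for 1 h with filtration and scintillation readout. Actives from duplicate single-point 25 uM screening proceeded to concentration series with 50 uM top concentration.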
# [11] = tested on: 5-hydroxytryptamine receptor 2C (pig); test: NVS_GPCR_p5HT2C: NovaScreen (NVS) G Protein-Coupled Receptor Assay for pig Serotonin, 5-Hydroxytryptamine Receptor 2C (5HT2C) (AID 2283288)
# Outline: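 Radioligand displacement on membranes from pig choroid plexus, detected by filter scintillation counting after 1 h. Tested first at a single 25 uM in duplicate, then in concentration-response for actives; DMSO served as baseline.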
# [12] = target: rat Serotonin, 5-Hydroxytryptamine Receptor 1 (5HT1), Non-Selective Binding, Htr1a (gene 24473) (UniProt P19327); test: NVS_GPCR_r5HT1_NonSelective: NovaScreen (NVS) G Protein-Coupled Receptor Assay for rat Serotonin, 5-Hydroxytryptamine Receptor 1 (5HT1), Non-Selective Binding (AID 2283286)
# Outline: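 Binding of a radioligand to rat cortex membranes is read by filtration and scintillation counting after 1 h. Compounds were screened at 25 uM in duplicate. Actives were then titrated to a top of 50 uM. DMSO is the baseline.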
# [13] = target: Metabotropic glutamate receptor 1 (Rattus norvegicus) (UniProt P23385); test: NVS_GPCR_rmMGluR1: NovaScreen (NVS) G Protein-Coupled Receptor Assay for rat Glutamate Metabotropic Receptor 1 (MGluR1) (AID 2283305)
# Outline: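 Binding to native receptor from rat cerebellum extract, measured as displacement of a radioligand (scintillation counting, filter separation) after 1 hour. Compounds tested at 25 uM in duplicate, then titrated to a 50 uM maximum.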
smiles,measurement,setting,value
O=C(N[C@H]1CN2CCC1CC2)c1ccc2c(c1)OCCO2,AC50,[1],inconclusive: 4 µM
O=[N+]([O-])c1ccc(Oc2ccc(Cl)cc2Cl)cc1,outcome,[2],inactive
same,outcome,[3],inactive
same,AC50,[4],active: 0.52 µM
CNC(=S)S,AC50,[5],inconclusive: 12.1 µM
same,AC50,[6],inconclusive: 25 µM
same,AC50,[7],inconclusive: 0.0594 µM
Cc1cc(Cl)ccc1O[C@H](C)C(=O)O,AC50,[3],inconclusive: 0.702 µM
COC(=O)C=C(C)OP(=O)(OC)OC,outcome,[1],inactive
same,AC50,[4],inconclusive: 0.961 µM
same,AC50,[7],inconclusive: 25 µM
COC(=O)C(C)Oc1ccc(Oc2ccc(Cl)cc2Cl)cc1 (stereo unspecified),AC50,[8],inconclusive: 247 nM and inconclusive: 1.07 µM
same,outcome,[8],inactive
CCC(C)(C)c1ccc(O)c(C(C)(C)CC)c1,AC50,[3],inconclusive: 25 µM
CCC[CH2][Sn]([Cl])([CH2]CCC)[CH2]CCC,outcome,[3],inactive
same,AC50,[4],active: 25 µM
same,AC50,[7],active: 2.98 µM
same,AC50,[9],active: 3.75 µM
same,AC50,[10],inconclusive: 25 µM
CC(C)(C)OOC(C)(C)C,AC50,[11],inconclusive: 0.306 µM
Cc1cc2c3c(c1)C(c1ccccc1)=N[C@@H](NC(=O)c1ccncc1)C(=O)N3CC2,AC50,[12],active: 6.17 µM
CCN1CCC2(CC1)COc1cc3c(cc12)N(C(=O)c1ccc(-c2ccc(-c4nnc(C)o4)cc2C)cc1)CC3,AC50,[11],inconclusive: 38 µM
same,AC50,[7],active: 18.6 µM
same,AC50,[13],inconclusive: 42.4 µM
CC(C)(C)C(O)C(Oc1ccc(Cl)cc1)n1cncn1 (stereo unspecified),AC50,[3],inconclusive: 25 µM
O=C(O)COc1nc(Cl)c(Cl)cc1Cl,AC50,[1],inconclusive: 25 µM
OCCOc1ccccc1,AC50,[12],inconclusive: 0.0625 µM
COP(=S)(OC)SCn1nnc2ccccc2c1=O,AC50,[8],active: 25 µM
same,outcome,[3],inactive
Oc1ccc(Cl)cc1Cc1ccccc1,AC50,[8],inconclusive: 25.2 µM
same,outcome,[4],inactive
